Experimental data: PubChem BioAssay AID1259267 (Sanger Institute, 2017)

Purpose: 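Which kinases and bowel-cancer genes GP5D cells need, with or without anchor drugs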 (primary screen)
Cell system: human GP5D colorectal cancer cells
Knock-down reagent: siRNA pool against human genes
Challenge: anchor drugs at low dose: BYL719 1 µM, cetuximab 5 µg/ml, trametinib 10 nM, or DMSO vehicle
Measurement: 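Viability against non-targeting pool, replicate mean: robust z-score for knock-down alone, fraction with DMSO, synergy with BYL719 1 µM, cetuximab 5 µg/ml, trametinib 10 nM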
Scale: robust z-score, knock-down alone and viability with DMSO: higher = more viable cells; synergy score with trametinib and synergy score with BYL719 and synergy score with cetuximab: higher = stronger synthetic lethal synergy with drug
Call rule: 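a robust z-score below -3 for the knock-down by itself makes a gene active, i.e. essential alone; synergy scores are ignored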
Calls: active = essential alone; inactive = not essential
This is an unselected part of 794 deposited reagents. 9 of them (1.1%) were called active. 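Viability capped at 1; calls reflect loss of viability from knock-down alone, not synergy with drugs.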 Not given: the amount of reagent, the time to read-out.

gene,"robust z-score, knock-down alone",viability with DMSO (fraction of control),synergy score with trametinib,synergy score with BYL719,synergy score with cetuximab,call
TRPM6,0.817,1,-0.197,-0.361,-0.142,inactive
CHEK2 (checkpoint kinase 2),0.683,0.971,0.0731,-0.285,-0.136,inactive
MAP3K8 (mitogen-activated protein kinase kinase kinase 8),0.475,0.927,0.256,-0.0308,-0.134,inactive
COASY (Coenzyme A synthase),-3.27,0.134,-0.046,-0.115,-0.0296,active
FGFR1 (fibroblast growth factor receptor 1),-0.512,0.718,0.231,-0.0354,0.183,inactive
KALRN (kalirin RhoGEF kinase),0.00661,0.828,0.171,-0.202,-0.121,inactive
DGKK (diacylglycerol kinase kappa),0.817,1,-0.197,-0.0953,-0.142,inactive
NME6 (NME/NM23 nucleoside diphosphate kinase 6),-1.63,0.481,-0.143,-0.127,-0.0472,inactive
HK2 (hexokinase 2),-0.405,0.741,0.197,-0.0247,0.131,inactive
EPHB4 (EPH receptor B4),0.277,0.885,0.0603,-0.2,-0.108,inactive
FLT1 (fms related receptor tyrosine kinase 1),0.817,1,-0.132,-0.313,-0.142,inactive
"RAF1 (Raf-1 proto-oncogene, serine/threonine kinase)",0.817,1,-0.172,0.0309,-0.0174,inactive

Active calls (from the list above):
gene,"robust z-score, knock-down alone",viability with DMSO (fraction of control),synergy score with trametinib,synergy score with BYL719,synergy score with cetuximab,call
COASY (Coenzyme A synthase),-3.27,0.134,-0.046,-0.115,-0.0296,active

The results go on.
gene,"robust z-score, knock-down alone",viability with DMSO (fraction of control),synergy score with trametinib,synergy score with BYL719,synergy score with cetuximab,call
STAG2 (STAG2 cohesin complex component),-0.661,0.687,0.00701,-0.445,-0.24,inactive
ACSL6 (acyl-CoA synthetase long chain family member 6),0.817,1,-0.045,-0.198,-0.142,inactive
STK10 (serine/threonine kinase 10),0.817,1,0.0219,-0.00772,-0.142,inactive
ERN2 (endoplasmic reticulum to nucleus signaling 2),0.817,1,-0.0131,-0.152,0.0594,inactive
LTK (leukocyte receptor tyrosine kinase),0.817,1,0.173,0.0124,0.171,inactive
CSNK1G1 (casein kinase 1 gamma 1),-2.56,0.285,0.0529,-0.125,-0.0354,inactive
AKT1 (AKT serine/threonine kinase 1),-0.858,0.645,-0.00171,-0.105,0.00443,inactive
NEK7 (NIMA related kinase 7),0.629,0.96,-0.098,-0.296,-0.14,inactive
